Measured values from the supplement of paper PMC12823440, “Inhibitors supercharge kinase turnover through native proteolytic circuits” (Nature, 2025).
This is one part of the list. The calls rarely recur for the same compound in another form.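 Kinases were expressed as nanoluciferase fusions in K562 cells and luminescence was read every 4 h between 2 and 18 h as percent of control, DMSO set to 100% and a positive control to 0%. A time point counts as decreased when the signal drops significantly (2 sigma). The hit call is the authors' own, does not follow from the count of time points alone, and its rule is not shown.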

By UniProt entry, the sequences of proteins in these tests, tags left out. Where a name states a change or a piece, a line headed by the entry shows the natural chain unless it says otherwise.
UniProt P29597: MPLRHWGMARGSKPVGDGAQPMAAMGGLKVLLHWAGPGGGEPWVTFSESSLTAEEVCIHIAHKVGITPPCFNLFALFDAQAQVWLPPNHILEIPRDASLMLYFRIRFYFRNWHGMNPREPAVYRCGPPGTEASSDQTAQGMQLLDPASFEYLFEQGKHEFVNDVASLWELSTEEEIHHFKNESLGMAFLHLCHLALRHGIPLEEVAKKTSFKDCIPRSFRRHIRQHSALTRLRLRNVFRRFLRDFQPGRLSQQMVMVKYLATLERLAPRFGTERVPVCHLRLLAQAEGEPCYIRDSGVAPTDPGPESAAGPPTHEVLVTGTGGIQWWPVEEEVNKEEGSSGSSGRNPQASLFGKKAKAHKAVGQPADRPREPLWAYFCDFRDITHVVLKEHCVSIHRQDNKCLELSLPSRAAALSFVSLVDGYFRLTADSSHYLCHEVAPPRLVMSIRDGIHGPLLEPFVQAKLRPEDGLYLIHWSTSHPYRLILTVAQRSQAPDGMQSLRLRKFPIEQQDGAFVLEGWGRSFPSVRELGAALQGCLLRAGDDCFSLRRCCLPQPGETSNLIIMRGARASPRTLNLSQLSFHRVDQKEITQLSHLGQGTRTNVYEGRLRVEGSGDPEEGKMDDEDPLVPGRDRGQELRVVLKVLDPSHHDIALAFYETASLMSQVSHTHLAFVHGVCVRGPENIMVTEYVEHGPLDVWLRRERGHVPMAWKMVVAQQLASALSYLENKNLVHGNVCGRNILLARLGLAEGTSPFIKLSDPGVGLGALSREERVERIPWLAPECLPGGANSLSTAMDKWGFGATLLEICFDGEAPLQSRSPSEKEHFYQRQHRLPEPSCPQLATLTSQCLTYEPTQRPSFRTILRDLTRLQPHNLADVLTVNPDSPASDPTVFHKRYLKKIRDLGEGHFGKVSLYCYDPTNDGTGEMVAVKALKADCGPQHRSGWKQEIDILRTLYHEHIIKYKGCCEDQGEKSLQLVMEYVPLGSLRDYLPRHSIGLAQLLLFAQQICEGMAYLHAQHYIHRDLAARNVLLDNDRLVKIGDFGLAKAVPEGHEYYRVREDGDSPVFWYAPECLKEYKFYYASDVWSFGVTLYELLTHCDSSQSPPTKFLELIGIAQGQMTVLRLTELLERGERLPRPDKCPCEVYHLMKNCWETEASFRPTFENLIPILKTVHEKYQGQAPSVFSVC

biological target: TYK2 (UniProt P29597); assay: kinase-Nluc reporter destabilization hit call (1 = scored as downregulated) (binary); higher = compound decreases kinase abundance; conditions: K562; 2-18 h

kinase-Nluc reporter destabilization hit call, inactive:
NCc1ccc(Nc2ncc(F)c(Nc3ccccc3)n2)cc1 (10 µM) 0
C=C(C)C(=O)Nc1cccc(-c2ncnc3[nH]cc(C(=O)OCC)c23)c1 (10 µM) 0
CCOc1cc(C(=O)N2CCC(N3CCN(C)CC3)CC2)ccc1Nc1ncc2c(n1)N(C1CCCC1)c1ccccc1C(=O)N2C (10 µM) 0
CCOc1ccc(C(=O)Nc2ncc([N+](=O)[O-])s2)cc1 (10 µM) 0
CNC(=O)Nc1ccc(-c2cc(-c3ccnc(Nc4ccc(C)c(S(=O)(=O)N(C)C)c4)n3)ccn2)cc1 [hSMG-1 inhibitor 11e] (2.5 µM) 0
CNC(=O)c1ccc(-c2cnc3cnc(C(=O)N(C)c4ccc(Cl)cc4)cn23)cc1 (2.5 µM) 0
COc1cccc(-n2c(=O)[nH]c3cc(Cl)n(-c4ccc(-c5cccc(OC)c5O)cc4)c3c2=O)c1 (2.5 µM) 0
O=C(Nc1cccnc1)c1cc(C(=O)c2c(F)cccc2Br)c[nH]1 (10 µM) 0
CN(CC(=O)N(Cc1ccc(C2CCCCC2)cc1)c1ccc(C(=O)O)cc1)S(=O)(=O)c1c(F)c(F)c(F)c(F)c1F (2.5 µM) 0
COc1c(NC(=O)C(=O)c2ccc(OCCN3CCOCC3)c3ccccc23)cc(C(C)(C)C)cc1NS(C)(=O)=O (2.5 µM) 0
CC(C)CC1(O)CCN(C(=O)c2ccc(NS(=O)(=O)c3cccc4nccnc34)cc2)CC1 (10 µM) 0
O=C(/C=C/c1ccc(O)c(O)c1)c1ccc(O[C@@H]2O[C@H](CO)[C@@H](O)[C@H](O)[C@H]2O)c(O)c1O [Marein] (10 µM) 0
